# Laboratory results taken from PubChem BioAssay AID256 (DTP/NCI, 2004).
# The list does not hold the whole screen: it is rich in T/C values a quarter to a half above the control, in often repeated tests (any T/C) and in doses without a T/C. Further doses and runs are listed elsewhere. T/C: endpoint of the treated group in % of that of the vehicle group. Some entries give survivors of the animals treated and no T/C: the source holds a T/C of zero for them, seemingly a mark for toxic or unscored doses. Some survivor counts are full or nearly so, which does not show that the dose was tolerated: survival well below the control is almost never listed, so the zero probably covers shortened survival too. Survivors were counted at the toxicity check, usually on the fifth day, unless a day is given; later deaths do not show. Schedules are NCI's codes, taken here to give the interval after Q, in days (D) or hours (H), and the number of doses after X. Some doses were run more than once; the results are listed from low to high. For survival time, this PubChem deposit counts one and a half times the control or more as active, and values a quarter to a half above the control carry no call in these data; other NCI protocols may use other cut-offs. Some T/C values are followed by the survivors on the day toxicity was checked, most often the fifth; where none is given, no animal had died by that day.
# Test system: CD2F1 mice, L1210 leukemia ip, survival T/C
# Test: NCI In Vivo Anticancer Drug Screen. Data for tumor model L1210 Leukemia (intraperitoneal) in CD2F1 (CDF1) mice
# Conditions: higher T/C = longer survival
# Experimental: The antitumor activity of compounds was measured in mice bearing transplantable tumors. Survival or tumor size were measured and the results are expressed as the measurement made in the treated group (T) divided by the measurement made in the vehicle treated control group (C). The tumor model used in this assay is L1210 Leukemia (intraperitoneal) in CD2F1 (CDF1) mice
smiles,measurement,setting,value
O=C1NC(CN2CCCC(O)C2)C(=O)NC1CN1CCCC(O)C1 (configuration not stated) (tested in a mixture with another compound),T/C,"T/C endpoint: mean survival time, dose: 100.0 mg/kg/injection, schedule: Q01DX009 (ip), vehicle: water",132 % of control
same,survivor count,"T/C endpoint: mean survival time, dose: 200.0 mg/kg/injection, schedule: Q01DX009 (ip), vehicle: water",2 of 3
same,survivor count,"T/C endpoint: mean survival time, dose: 400.0 mg/kg/injection, schedule: Q01DX009 (ip), vehicle: water",1 of 3
Nc1ccc2nc3ccc(N)cc3[n+](-c3ccccc3)c2c1,survivor count,"T/C endpoint: mean survival time, dose: 18.0 mg/kg/injection, schedule: Q01DX009 (ip), vehicle: saline",3 of 6
same,survivor count,"T/C endpoint: mean survival time, dose: 27.0 mg/kg/injection, schedule: Q01DX009 (ip), vehicle: saline",1 of 6
same,survivor count,"T/C endpoint: mean survival time, dose: 40.0 mg/kg/injection, schedule: Q01DX009 (ip), vehicle: saline",0 of 6
O=S(=O)(c1ccc(N2CCOCC2)cc1)c1ccnc2cc(Cl)ccc12,survivor count,"T/C endpoint: mean survival time, dose: 200.0 mg/kg/injection, schedule: Q01DX009 (ip), vehicle: saline with Tween-80",6 of 6
same,survivor count,"T/C endpoint: mean survival time, dose: 400.0 mg/kg/injection, schedule: Q01DX009 (ip), vehicle: saline with Tween-80",6 of 6
N=c1ccn2c(n1)OC1C(OP(=O)(O)O)C(CO)OC12 (configuration not stated),T/C,"T/C endpoint: mean survival time, dose: 8.7 mg/kg/injection, schedule: Q03HX024 (oral), vehicle: water",132 % of control
same,T/C,"T/C endpoint: mean survival time, dose: 11.6 mg/kg/injection, schedule: Q01DX009 (ip), vehicle: saline",139 % of control
same,T/C,"T/C endpoint: mean survival time, dose: 16.0 mg/kg/injection, schedule: Q01DX009 (ip), vehicle: saline",138 % of control
same,T/C,"T/C endpoint: mean survival time, dose: 16.0 mg/kg/injection, schedule: Q03HX008 (ip), vehicle: saline",127 % of control
same,T/C,"T/C endpoint: mean survival time, dose: 16.0 mg/kg/injection, schedule: Q03HX024 (oral), vehicle: saline",148 % of control
same,T/C,"T/C endpoint: mean survival time, dose: 32.0 mg/kg/injection, schedule: Q03HX008 (ip), vehicle: saline",136 % of control
same,T/C,"T/C endpoint: mean survival time, dose: 32.0 mg/kg/injection, schedule: Q03HX008 (oral), vehicle: saline",127 % of control
same,T/C,"T/C endpoint: mean survival time, dose: 46.4 mg/kg/injection, schedule: Q01DX009 (oral), vehicle: water",138 % of control
same,T/C,"T/C endpoint: mean survival time, dose: 64.0 mg/kg/injection, schedule: Q01DX009 (oral), vehicle: saline",131 % of control [9 of 10 alive]
same,T/C,"T/C endpoint: mean survival time, dose: 64.0 mg/kg/injection, schedule: Q03HX008 (ip), vehicle: saline",148 % of control
same,T/C,"T/C endpoint: mean survival time, dose: 64.0 mg/kg/injection, schedule: Q03HX008 (oral), vehicle: saline",147 % of control
same,T/C,"T/C endpoint: mean survival time, dose: 256.0 mg/kg/injection, schedule: Q04DX003 (oral), vehicle: saline",135 % of control
same,T/C,"T/C endpoint: mean survival time, dose: 512.0 mg/kg/injection, schedule: Q01DX001 (ip), vehicle: saline",141 % of control
same,T/C,"T/C endpoint: mean survival time, dose: 512.0 mg/kg/injection, schedule: Q01DX001 (oral), vehicle: saline",131 % of control
same,T/C,"T/C endpoint: mean survival time, dose: 1024.0 mg/kg/injection, schedule: Q01DX001 (oral), vehicle: saline",147 % of control
COc1ccc(C(SCC(N)C(=O)O)(c2ccccc2)c2ccc(OC)cc2)cc1 (configuration not stated),T/C,"T/C endpoint: mean survival time, dose: 25.0 mg/kg/injection, schedule: Q01DX009 (ip), vehicle: saline",134 % of control
same,survivor count,"T/C endpoint: mean survival time, dose: 50.0 mg/kg/injection, schedule: Q01DX009 (ip), vehicle: saline",4 of 6
same,survivor count,"T/C endpoint: mean survival time, dose: 100.0 mg/kg/injection, schedule: Q01DX009 (ip), vehicle: saline",4 of 6
same,survivor count,"T/C endpoint: mean survival time, dose: 200.0 mg/kg/injection, schedule: Q01DX009 (ip), vehicle: saline",0 of 6
same,survivor count,"T/C endpoint: mean survival time, dose: 400.0 mg/kg/injection, schedule: Q01DX009 (ip), vehicle: saline",0 of 6
Nc1nc2ncn(O)c2c(=O)[nH]1,T/C,"T/C endpoint: median survival time, dose: 3.12 mg/kg/injection, schedule: Q01DX009 (ip), vehicle: water",138 and 144 % of control
same,T/C,"T/C endpoint: median survival time, dose: 25.0 mg/kg/injection, schedule: Q01DX009 (ip), vehicle: water",134 % of control
same,survivor count,"T/C endpoint: median survival time, dose: 50.0 mg/kg/injection, schedule: Q01DX009 (ip), vehicle: other",1 of 6
same,survivor count,"T/C endpoint: median survival time, dose: 50.0 mg/kg/injection, schedule: Q01DX009 (ip), vehicle: water",5 of 6 and 6 of 6
